Source: ChEMBL document CHEMBL3988442, “University of Dundee, Small-Polar-MMV Screening Library” (2021).

Each number is a percent effect as filed.
The controls that fix the scale are not given in the record; negative values are as filed.
Compounds were drawn at random from those tested, without regard to their results.

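Assay of Toxoplasma gondii numbers, read through their beta-galactosidase reporter with a colour substrate. Tested at 50 µM. Higher reads as fewer parasites (inferred from which compounds were picked for retests). Of about 18,000 compounds tested this way, about 170 (0.94%) reached 50% or more in at least one test.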

- NCCc1cccc(O)c1 | 0.4182%
- CCS(=O)(=O)Cc1cc(=O)n(C)c(=O)n1C | 4.26%
- O=C(CO)N1CCCC(CCc2ccccc2F)C1 (centres undefined) | 15.01%
- CCn1ccc(C(=O)N(C)Cc2cccnc2OC)n1 | 15.52%
- O=C(C1CCCOC1)N1CCCc2c(F)cccc21 (centres undefined) | 1.458%
- NC[C@]12C[C@H]1CCN2Cc1ccccc1 | 2.516%
- CC(C)N(C(=O)C1CCNCC1)C(C)C | -1.688%
- COc1nc(C)nc(NCC(C)(C)C(N)=O)c1C | -1.871%
- CCc1cccc(NC(=O)CCNC(C)=O)c1 | -5.876%
- CCC[C@H]1CN(C(=O)c2nn(C)c(C)c2Cl)C[C@@H]1N | -4.484%
- COC(=O)CC(NC(=O)c1ccon1)C1CC1 (centres undefined) | 16.93%
- CCCn1ccc(C(N)=O)n1 | -20.1%
- COc1ccnc(N2CC(O)(C3CC3)C2)n1 | -6.273%
- NC(=O)[C@H](Cc1ccccc1)NC(=O)c1cnn[nH]1 | 2.525%
- CNC(=O)[C@@H]1C[C@@H](N)CN1Cc1ccc(Cl)s1 | -1.474%
- Cc1c(O)cccc1C(=O)N[C@@H]1CS(=O)(=O)C[C@H]1O | -1.388%
- OC(CSc1ncccc1Br)CN1CCOCC1 (centres undefined) | -5.41%
- NC1CCN(CCC(=O)Nc2ccccc2)CC1 | 0.4347%
- COC(=O)c1ccnc(NC(=O)CCc2ccco2)c1 | 23.79%
- Cc1oc(C)c(C(=O)NCCCNS(C)(=O)=O)c1C | 16.66%
- CCN(CCNC(=O)c1cc(C#N)c[nH]1)C1CC1 | 18.12%
- Cc1ccc(C(N)CN2CCOCC2)cc1 (centres undefined) | 2.438%
- CC(=O)Nc1ccc(N2C(=O)C=CC2=O)cc1 | 0.2697%
- CCOC1CC(CCNC(=O)N2CCC(CO)CC2)C1 (centres undefined) | 3.456%
- CCn1cc(N)ccc1=O | 0.172%
- CCn1nc(C)cc1C(=O)NC(C)c1nc(C)c[nH]1 (centres undefined) | -11.78%
- Cc1cc(C(=O)N2CCCNCC2)c(F)cc1F | -5.319%
- CN(CC(=O)NCc1ccccn1)S(C)(=O)=O | -22.14%
- NCC1CNCCO1 (centres undefined) | -7.898%
- Cc1nnc(CN2C[C@H](C3CC3)[C@@H](N)C2)s1 | -18.44%
- CS(=O)(=O)NCC1CCN(CC2CCCO2)CC1 (centres undefined) | 11.39%
- CCC1CN(CCN)CCO1 (centres undefined) | 1.614%
- c1cnc(NCc2ccc(N3CCOCC3)nc2)nc1 | -0.6579%
- CCNC(=O)NC(c1ccc2c(c1)OCCO2)C(C)C (centres undefined) | -6.184%
- COc1cc(CN)cc(Br)c1OC | 0.1756%
- CC[C@H](N)C(=O)N1CCCc2cc(OC)ccc2C1 | 2.629%
- CCN1CCCN(C(=O)Nc2ccccc2)CC1 | 16.29%
- CCOc1c(CNc2nc[nH]n2)cccc1OC | -3.01%
- CC(C)(O)C1CCCN1C(=O)Nc1cccnn1 (centres undefined) | -9.704%
- O=C(c1ccc(F)c(O)c1)N1CC(N2CCCCC2)C1 | 1.892%
- CCC(CC)C(=O)NC1CCN(C)CC1 | 6.739%
- Cn1cncc1CCNS(=O)(=O)c1cccs1 | 7.827%
- CCN(C(=O)C(C)O)C1CCCCC1 (centres undefined) | -12%
- CN(C)[C@@H]1C[C@@H](CO)N(C(=O)c2cn3ccsc3n2)C1 | -14.79%
- Cn1cc(C(N)=O)nn1 | 1.752%
- Cc1ccc(OC(C)CN)cc1 (centres undefined) | 2.194%
- CC(C)(C)CCC(N)C(N)=O (centres undefined) | -32.77%
- Cc1c(CN2CCSCC2)cccc1NS(C)(=O)=O | -0.04181%
- Cn1cc(Cl)c(C(=O)N[C@H]2C[C@@H]3OCC[C@H]23)n1 | -1.452%
- CC(CNC(=O)c1nccnc1N)Cn1ccnc1 (centres undefined) | -3.049%
- O=C(NC1CCCc2[nH]c(=O)ccc21)c1ccc(Cl)o1 (centres undefined) | -2.431%
- CC(C(N)=O)S(=O)(=O)Cc1ccc(Br)s1 (centres undefined) | -3.068%

Repeated from the top, 6 entries:

{"compound": "NCCc1cccc(O)c1", "Percent Effect": 0.4182}
{"compound": "CCS(=O)(=O)Cc1cc(=O)n(C)c(=O)n1C", "Percent Effect": 4.26}
{"compound": "O=C(CO)N1CCCC(CCc2ccccc2F)C1", "stereo": "centres undefined", "Percent Effect": 15.01}
{"compound": "CCn1ccc(C(=O)N(C)Cc2cccnc2OC)n1", "Percent Effect": 15.52}
{"compound": "O=C(C1CCCOC1)N1CCCc2c(F)cccc21", "stereo": "centres undefined", "Percent Effect": 1.458}
{"compound": "NC[C@]12C[C@H]1CCN2Cc1ccccc1", "Percent Effect": 2.516}